For one molecule, binding results are on record in patent US20250376533A1.

Amino acid sequences for entries named in this document (tags omitted). A change or cut given only in a name is not applied to a line headed by its entry. Chains listed by the source or under a name are the forms on record and can include a tag or linker.
cynomolgus PD-L1 antigen (ACROBiosystems) (G7PSE7, form named): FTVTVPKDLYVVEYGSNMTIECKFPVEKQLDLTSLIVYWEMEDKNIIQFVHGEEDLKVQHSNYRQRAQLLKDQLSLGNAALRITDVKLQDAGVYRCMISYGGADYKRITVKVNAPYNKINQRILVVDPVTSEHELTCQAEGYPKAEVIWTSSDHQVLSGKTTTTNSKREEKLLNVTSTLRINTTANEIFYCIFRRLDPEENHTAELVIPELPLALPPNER
cynomolgus CD40 antigen (ACROBiosystems) (G7PG38, form named): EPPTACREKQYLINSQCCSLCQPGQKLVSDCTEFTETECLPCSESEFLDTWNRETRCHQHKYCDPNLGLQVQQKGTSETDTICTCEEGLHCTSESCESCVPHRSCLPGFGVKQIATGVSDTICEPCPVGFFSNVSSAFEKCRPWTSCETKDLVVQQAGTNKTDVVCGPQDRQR

In test [1] the target is cynomolgus PD-L1 antigen (ACROBiosystems) (cynomolgus) (UniProt G7PSE7). Kind of test: ELISA, coated antigen. (In an ELISA, binding on a coated surface is turned into a signal by an enzyme label.)
The target of test [2] is cynomolgus CD40 antigen (ACROBiosystems) (cynomolgus) (UniProt G7PG38). Kind of test: ELISA, coated antigen.

These are yes or no findings as the source states them, for the method shown. Some results given as binding are weak or reduced against the parent protein; the word gives no strength.

B1: anti-PD-L1/CD40 bispecific antibody 1655 (bispecific antibody, human IgG2, kappa)
light: DIQMTQSPSSLSASVGDRVTITCRASQTISSYLNWYQQKPGKAPKLLIYYTSTLQSGVPSRFSGSGSGTDYTLTISSLQPEDFATYYCQQGNAYPWTFGGGTKVEIKRTVAAPSVFIFPPSDEQLKSGTASVVCLLNNFYPREAKVQWKVDNALQSGNSQESVTEQDSKDSTYSLSSTLTLSKADYEKHKVYACEVTHQGLSSPVTKSFNRGEC
heavy: EVQLVESGGGLVQPGGSLRLSCAASGFTFSNYYMSWVRQAPGKGLEWVGFIRNKANAYTTEYAASVKGRFTISRDNSKSTLYLQMNSLRAEDTAVYYCARYGGLKIGWYFDLWGQGTLVTVSSASTKGPSVFPLAPCSRSTSESTAALGCLVKDYFPEPVTVSWNSGALTSGVHTFPAVLQSSGLYSLSSVVTVPSSNFGTQTYTCNVDHKPSNTKVDKTVERKCCVECPPCPAPPVAGPSVFLFPPKPKDTLMISRTPEVTCVVVDVSHEDPEVQFNWYVDGVEVHNAKTKPREEQFNSTFRVVSVLTVVHQDWLNGKEYKCKVSNKGLPAPIEKTISKTKGQPREPQVYTLPPSREEMTKNQVSLTCLVKGFYPSDIAVEWESNGQPENNYKTTPPMLDSDGSFFLYSKLTVDKSRWQQGNVFSCSVMHEALHNHYTQKSLSLSPGGGGGSGGGGSGGGGSGEVQLVESGGGLVQPGGSLRLSCAASGFTFDYYTQCWFRQAPGKEREWVSCISSSEGSTYYADSVKGRFTISRDNSKNTVYLQMNSLKTEDTAVYYCAARKGGPLTIENFFDYWGQGTQVTVSS
For B1, the binding result in test [1] and in test [2] was “binds” throughout.
